Measured values published in the supplement of paper PMC6411743.
± gives the standard deviation of the averaged measurements. The entries are a selection whose mix differs from that of the whole data set. Most entries show no effect beyond the scatter of the controls.

The chains behind the UniProt entries cited, without tags or fusion partners. Where a name states a change or a piece, a line headed by the entry shows the natural chain unless it says otherwise.
UniProt P51784: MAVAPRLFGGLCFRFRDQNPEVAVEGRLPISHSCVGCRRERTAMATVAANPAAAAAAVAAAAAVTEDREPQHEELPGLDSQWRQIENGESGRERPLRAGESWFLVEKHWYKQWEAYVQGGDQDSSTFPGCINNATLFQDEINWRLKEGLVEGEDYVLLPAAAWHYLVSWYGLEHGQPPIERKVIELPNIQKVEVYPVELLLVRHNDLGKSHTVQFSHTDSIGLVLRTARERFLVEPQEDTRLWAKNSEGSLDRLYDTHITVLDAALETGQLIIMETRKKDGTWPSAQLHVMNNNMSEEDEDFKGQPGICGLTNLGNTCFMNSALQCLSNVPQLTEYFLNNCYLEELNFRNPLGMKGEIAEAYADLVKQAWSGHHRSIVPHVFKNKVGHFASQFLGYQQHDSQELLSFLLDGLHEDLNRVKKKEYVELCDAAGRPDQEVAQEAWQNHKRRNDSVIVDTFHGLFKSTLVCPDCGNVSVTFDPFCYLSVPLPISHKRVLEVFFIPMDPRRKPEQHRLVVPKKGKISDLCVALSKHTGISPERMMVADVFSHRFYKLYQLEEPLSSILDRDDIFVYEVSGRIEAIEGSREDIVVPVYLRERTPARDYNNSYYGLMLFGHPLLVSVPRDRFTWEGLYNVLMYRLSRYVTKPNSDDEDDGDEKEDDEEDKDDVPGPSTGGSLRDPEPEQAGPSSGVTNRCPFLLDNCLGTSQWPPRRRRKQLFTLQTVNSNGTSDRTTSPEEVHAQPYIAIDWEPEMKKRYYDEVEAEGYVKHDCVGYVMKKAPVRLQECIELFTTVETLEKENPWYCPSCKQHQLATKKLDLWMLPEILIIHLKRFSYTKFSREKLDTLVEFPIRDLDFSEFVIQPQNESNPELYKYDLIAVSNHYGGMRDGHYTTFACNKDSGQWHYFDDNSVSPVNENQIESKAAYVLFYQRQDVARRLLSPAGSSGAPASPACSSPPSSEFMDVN
UniProt P57678: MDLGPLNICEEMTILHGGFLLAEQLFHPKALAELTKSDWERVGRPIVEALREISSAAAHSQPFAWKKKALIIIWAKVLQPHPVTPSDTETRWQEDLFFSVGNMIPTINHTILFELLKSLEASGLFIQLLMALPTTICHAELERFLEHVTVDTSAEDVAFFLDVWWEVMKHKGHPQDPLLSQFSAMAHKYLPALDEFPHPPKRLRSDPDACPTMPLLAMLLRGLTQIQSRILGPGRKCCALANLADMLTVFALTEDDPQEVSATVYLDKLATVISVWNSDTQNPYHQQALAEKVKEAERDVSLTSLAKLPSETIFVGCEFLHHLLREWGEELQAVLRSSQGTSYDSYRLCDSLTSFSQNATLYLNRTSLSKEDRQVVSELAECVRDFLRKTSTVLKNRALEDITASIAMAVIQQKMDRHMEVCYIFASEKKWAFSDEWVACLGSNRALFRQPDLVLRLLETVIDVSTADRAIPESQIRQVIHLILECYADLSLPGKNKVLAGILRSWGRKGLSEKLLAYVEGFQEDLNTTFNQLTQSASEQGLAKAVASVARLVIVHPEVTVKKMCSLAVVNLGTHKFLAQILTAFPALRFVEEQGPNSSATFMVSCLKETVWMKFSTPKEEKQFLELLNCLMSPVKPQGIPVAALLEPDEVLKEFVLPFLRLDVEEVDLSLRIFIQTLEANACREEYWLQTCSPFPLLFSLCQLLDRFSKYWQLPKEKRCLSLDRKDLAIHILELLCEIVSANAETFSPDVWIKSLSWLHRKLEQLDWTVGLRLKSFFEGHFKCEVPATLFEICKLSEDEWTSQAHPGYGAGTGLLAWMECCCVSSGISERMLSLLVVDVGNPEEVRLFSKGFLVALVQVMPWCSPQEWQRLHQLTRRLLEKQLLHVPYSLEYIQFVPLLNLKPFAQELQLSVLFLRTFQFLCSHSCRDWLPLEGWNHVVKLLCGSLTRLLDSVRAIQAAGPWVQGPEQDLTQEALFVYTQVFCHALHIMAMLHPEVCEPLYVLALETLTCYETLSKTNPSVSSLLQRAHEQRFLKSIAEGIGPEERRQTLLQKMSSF
UniProt Q9Y5A7: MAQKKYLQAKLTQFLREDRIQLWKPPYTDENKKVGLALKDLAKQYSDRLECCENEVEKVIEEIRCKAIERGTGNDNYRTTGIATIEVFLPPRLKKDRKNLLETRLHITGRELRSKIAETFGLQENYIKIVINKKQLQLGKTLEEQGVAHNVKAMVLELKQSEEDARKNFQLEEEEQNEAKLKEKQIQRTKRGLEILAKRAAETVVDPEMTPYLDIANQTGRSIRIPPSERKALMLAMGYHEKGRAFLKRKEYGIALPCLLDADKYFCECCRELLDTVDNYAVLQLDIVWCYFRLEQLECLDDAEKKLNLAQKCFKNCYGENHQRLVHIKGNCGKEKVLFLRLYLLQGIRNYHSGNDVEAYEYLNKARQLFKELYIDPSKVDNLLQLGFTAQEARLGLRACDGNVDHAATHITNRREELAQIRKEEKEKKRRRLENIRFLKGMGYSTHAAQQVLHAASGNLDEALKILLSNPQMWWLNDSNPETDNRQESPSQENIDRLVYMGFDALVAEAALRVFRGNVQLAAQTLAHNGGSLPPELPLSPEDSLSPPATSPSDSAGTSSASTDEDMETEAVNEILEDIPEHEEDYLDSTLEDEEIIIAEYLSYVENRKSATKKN
UniProt Q9HB58: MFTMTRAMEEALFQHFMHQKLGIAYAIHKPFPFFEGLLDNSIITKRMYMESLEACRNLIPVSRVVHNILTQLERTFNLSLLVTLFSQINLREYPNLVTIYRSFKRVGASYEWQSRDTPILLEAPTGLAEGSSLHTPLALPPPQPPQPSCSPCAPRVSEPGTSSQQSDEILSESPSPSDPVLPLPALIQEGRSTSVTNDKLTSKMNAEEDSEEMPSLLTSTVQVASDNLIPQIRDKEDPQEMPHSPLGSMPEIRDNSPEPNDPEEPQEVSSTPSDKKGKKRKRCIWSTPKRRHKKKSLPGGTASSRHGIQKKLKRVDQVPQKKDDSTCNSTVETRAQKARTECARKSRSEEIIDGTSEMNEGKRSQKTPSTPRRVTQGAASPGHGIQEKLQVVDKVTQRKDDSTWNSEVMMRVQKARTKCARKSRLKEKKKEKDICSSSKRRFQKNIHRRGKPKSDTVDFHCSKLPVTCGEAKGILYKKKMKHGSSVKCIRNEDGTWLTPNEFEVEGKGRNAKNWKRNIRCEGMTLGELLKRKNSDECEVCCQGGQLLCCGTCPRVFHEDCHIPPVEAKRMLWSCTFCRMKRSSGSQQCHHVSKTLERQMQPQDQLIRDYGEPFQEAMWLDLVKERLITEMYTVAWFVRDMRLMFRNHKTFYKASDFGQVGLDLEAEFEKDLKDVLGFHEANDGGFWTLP
UniProt Q01469, whole entry: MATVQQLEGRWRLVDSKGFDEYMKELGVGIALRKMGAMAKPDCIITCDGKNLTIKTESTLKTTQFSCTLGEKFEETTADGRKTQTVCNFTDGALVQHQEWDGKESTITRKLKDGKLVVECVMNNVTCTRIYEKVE
UniProt Q9Y2L5: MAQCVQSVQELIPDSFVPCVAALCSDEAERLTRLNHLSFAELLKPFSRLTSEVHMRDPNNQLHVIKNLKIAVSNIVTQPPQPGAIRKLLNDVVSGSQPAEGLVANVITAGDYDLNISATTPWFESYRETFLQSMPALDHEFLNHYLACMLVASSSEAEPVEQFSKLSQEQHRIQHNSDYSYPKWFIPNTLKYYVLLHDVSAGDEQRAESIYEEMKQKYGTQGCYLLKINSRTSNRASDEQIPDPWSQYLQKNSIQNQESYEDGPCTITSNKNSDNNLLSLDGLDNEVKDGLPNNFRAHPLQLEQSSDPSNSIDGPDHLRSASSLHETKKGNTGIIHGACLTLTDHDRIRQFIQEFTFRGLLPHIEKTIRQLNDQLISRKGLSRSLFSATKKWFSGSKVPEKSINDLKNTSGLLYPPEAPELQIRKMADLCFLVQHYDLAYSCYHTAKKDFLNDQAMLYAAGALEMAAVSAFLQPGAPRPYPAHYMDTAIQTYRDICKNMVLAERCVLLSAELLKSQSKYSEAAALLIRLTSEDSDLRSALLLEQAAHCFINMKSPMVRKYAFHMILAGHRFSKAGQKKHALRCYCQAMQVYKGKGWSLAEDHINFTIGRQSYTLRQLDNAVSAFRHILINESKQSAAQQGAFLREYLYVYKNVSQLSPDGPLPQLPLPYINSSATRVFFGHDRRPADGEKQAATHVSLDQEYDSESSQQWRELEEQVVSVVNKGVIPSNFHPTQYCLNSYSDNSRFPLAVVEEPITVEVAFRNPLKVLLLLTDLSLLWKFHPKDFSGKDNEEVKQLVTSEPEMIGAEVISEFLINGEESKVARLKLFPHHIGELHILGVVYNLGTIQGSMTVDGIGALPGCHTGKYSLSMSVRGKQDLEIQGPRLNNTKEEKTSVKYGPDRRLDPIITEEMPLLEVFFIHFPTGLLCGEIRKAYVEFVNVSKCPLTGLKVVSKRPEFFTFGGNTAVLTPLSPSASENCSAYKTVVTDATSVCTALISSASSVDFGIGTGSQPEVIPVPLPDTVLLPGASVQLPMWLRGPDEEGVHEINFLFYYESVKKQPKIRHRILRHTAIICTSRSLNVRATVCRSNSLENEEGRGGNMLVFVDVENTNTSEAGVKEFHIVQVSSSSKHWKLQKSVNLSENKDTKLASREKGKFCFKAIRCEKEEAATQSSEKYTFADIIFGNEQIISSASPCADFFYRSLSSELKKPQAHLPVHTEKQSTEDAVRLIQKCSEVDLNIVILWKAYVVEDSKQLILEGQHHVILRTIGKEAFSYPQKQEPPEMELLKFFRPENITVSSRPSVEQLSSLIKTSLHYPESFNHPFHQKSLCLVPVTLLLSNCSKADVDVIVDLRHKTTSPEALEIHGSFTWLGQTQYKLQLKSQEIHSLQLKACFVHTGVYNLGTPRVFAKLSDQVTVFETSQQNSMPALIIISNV
UniProt Q92841: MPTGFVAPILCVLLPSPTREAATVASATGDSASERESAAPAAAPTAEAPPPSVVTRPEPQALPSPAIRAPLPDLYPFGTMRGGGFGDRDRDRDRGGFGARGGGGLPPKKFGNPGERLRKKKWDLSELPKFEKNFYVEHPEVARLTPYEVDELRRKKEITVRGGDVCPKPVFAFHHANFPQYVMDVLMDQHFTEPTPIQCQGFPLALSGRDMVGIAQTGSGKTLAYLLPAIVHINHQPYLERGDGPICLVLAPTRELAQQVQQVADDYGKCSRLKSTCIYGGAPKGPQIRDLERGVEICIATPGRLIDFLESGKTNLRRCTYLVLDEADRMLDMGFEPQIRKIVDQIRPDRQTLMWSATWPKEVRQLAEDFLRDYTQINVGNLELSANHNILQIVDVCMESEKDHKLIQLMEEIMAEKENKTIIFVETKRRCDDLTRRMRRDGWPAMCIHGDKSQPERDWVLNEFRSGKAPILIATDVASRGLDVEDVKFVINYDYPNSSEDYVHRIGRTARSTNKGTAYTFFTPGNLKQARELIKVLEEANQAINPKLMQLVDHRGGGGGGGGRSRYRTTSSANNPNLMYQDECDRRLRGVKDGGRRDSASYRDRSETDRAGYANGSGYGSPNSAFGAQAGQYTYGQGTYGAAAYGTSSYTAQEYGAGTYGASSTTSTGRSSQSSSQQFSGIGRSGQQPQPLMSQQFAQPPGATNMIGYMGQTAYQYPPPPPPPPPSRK
UniProt Q13449: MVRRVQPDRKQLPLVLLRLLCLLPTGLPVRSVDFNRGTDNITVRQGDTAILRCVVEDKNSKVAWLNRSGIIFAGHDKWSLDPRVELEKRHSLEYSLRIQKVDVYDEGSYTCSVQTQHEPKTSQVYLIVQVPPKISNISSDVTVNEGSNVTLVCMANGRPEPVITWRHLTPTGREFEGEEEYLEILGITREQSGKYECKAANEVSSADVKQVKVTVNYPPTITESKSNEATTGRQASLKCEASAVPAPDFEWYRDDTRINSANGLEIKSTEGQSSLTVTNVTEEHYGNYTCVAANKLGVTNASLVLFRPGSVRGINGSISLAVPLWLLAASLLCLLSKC
UniProt P17844: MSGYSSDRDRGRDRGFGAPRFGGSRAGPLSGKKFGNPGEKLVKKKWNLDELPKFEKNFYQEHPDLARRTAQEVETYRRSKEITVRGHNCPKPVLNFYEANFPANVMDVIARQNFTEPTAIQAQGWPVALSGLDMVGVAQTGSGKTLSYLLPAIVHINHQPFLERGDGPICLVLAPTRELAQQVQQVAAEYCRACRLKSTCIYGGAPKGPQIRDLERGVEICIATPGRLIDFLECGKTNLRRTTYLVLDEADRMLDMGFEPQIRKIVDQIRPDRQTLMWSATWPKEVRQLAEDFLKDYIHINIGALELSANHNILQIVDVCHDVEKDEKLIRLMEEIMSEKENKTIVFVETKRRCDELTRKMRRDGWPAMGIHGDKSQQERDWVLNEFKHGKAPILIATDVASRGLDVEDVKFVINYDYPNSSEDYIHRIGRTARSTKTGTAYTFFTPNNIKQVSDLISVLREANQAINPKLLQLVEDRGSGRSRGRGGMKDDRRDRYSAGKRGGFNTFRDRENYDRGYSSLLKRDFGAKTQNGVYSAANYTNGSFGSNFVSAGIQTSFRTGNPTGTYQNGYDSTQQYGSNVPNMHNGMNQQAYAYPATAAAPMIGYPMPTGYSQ

Compound: Nc1ncnc2c1ncn2[C@@H]1O[C@H](COP(=O)(O)OP(=O)(O)NP(=O)(O)O)[C@@H](O)[C@H]1O [adenylyl imidodiphosphate]
Assay: NP40-soluble protein abundance relative to vehicle (solubility fold change) (ratio); higher = more soluble protein in presence of AMP-PNP
How it was run: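 Data come from three independent experiments in which Dounce-homogenised Jurkat crude lysate was treated at eight concentrations from 0.1 to 10 mM. Treatment ran 10 min at room temperature and then 3 min at 37 °C, after which 0.8% NP40 and benzonase were added for 60 min at 4 °C before ultracentrifugation. The supernatant underwent TMT labelling and LC-MS/MS, and vsn-normalised intensities were expressed as fold change against the detergent-processed vehicle in each replicate.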

| Target | NP40-soluble protein abundance (concentration: 0.1mM) | NP40-soluble protein abundance (concentration: 0.5mM) |
| --- | --- | --- |
| I3L0N3 and related entries (UniProt P46459) | 1.01 ± 0.025 | 0.991 ± 0.04 |
| G3XAH6 and related entries (UniProt P51003) | 0.98 ± 0.036 | 0.984 ± 0.021 |
| J3KR35 and related entries (UniProt Q8WUD4) | 0.993 ± 0.049 | 1.07 ± 0.078 |
| G5E9A6 and related entries (UniProt P51784) | 1.03 ± 0.041 | 0.989 ± 0.067 |
| G5E9V6 and related entries (UniProt Q8IUR7) | 0.997 ± 0.012 | 0.983 ± 0.045 |
| I3L2C7 and related entries (UniProt P57678) | 1.08 ± 0.036 | 0.996 ± 0.073 |
| H3BSM7 and related entries (UniProt Q96GQ5) | 1.02 ± 0.035 | 1.01 ± 0.046 |
| H3BM14 and related entries (UniProt Q9Y5A7) | 0.977 ± 0.022 | 0.971 ± 0.01 |
| J3KNF4 (UniProt O14618) | 1 ± 0.012 | 0.991 ± 0.049 |
| G3XAC1 and related entries (UniProt Q9BXS9) | 1.01 ± 0.024 | 0.955 ± 0.023 |
| I3L3Z2 and related entries (UniProt Q9BRA0) | 0.988 ± 0.041 | 0.997 ± 0.017 |
| G5E9C0 and related entries (UniProt Q9HB58) | 0.9794 ± 0.0089 | 1.02 ± 0.026 |
| J3KNL6 and related entries (UniProt O15027) | 1.01 ± 0.019 | 0.951 ± 0.051 |
| I6L8B7 and related entries (UniProt Q01469) | 0.997 ± 0.07 | 1.09 ± 0.085 |
| I3L2J0 and related entries (UniProt Q96RK0) | 0.996 ± 0.052 | 0.972 ± 0.01 |
| H7BXH9 and related entries (UniProt Q8WXB1) | 1.052 ± 0.0031 | 1.02 ± 0.079 |
| G8JL98 and related entries (UniProt Q13569) | 0.963 ± 0.021 | 1 ± 0.016 |
| J3QQJ5 and related entries (UniProt Q9Y2L5) | 0.991 ± 0.043 | 0.95 ± 0.063 |
| J3KN32 and related entries (UniProt Q9UKL0) | 1.02 ± 0.06 | 1.06 ± 0.069 |
| H3BLZ8 (UniProt Q92841) | 1.02 ± 0.035 | 1.01 ± 0.067 |
| J3KP15 and related entries (UniProt Q01130) | 1.04 ± 0.053 | 1.04 ± 0.038 |
| J3KPC5 and related entries (UniProt P47736) | 0.969 ± 0.016 | 0.983 ± 0.02 |
| H0YD36 and related entries (UniProt P54098) | 0.998 ± 0.015 | 0.97 ± 0.043 |
| H3BLU2 and related entries (UniProt Q13449) | 0.9529 ± 0.0077 | 0.997 ± 0.033 |
| J3KTA4 and related entries (UniProt P17844) | 0.935 ± 0.14 | 1.05 ± 0.046 |
| H3BLV9 and related entries (UniProt Q96SB4) | 1.04 ± 0.025 | 1.02 ± 0.037 |
| J3KNN3 and related entries (UniProt P15735) | 1.057 ± 0.0059 | 1.02 ± 0.087 |

6 consecutive records out of the list so far, for reference:

| Target | NP40-soluble protein abundance (concentration: 0.1mM) | NP40-soluble protein abundance (concentration: 0.5mM) |
| --- | --- | --- |
| I3L0N3 and related entries (UniProt P46459) | 1.01 ± 0.025 | 0.991 ± 0.04 |
| G3XAH6 and related entries (UniProt P51003) | 0.98 ± 0.036 | 0.984 ± 0.021 |
| J3KR35 and related entries (UniProt Q8WUD4) | 0.993 ± 0.049 | 1.07 ± 0.078 |
| G5E9A6 and related entries (UniProt P51784) | 1.03 ± 0.041 | 0.989 ± 0.067 |
| G5E9V6 and related entries (UniProt Q8IUR7) | 0.997 ± 0.012 | 0.983 ± 0.045 |
| I3L2C7 and related entries (UniProt P57678) | 1.08 ± 0.036 | 0.996 ± 0.073 |
